These results are taken from article PMC7819943, “Rice protein-binding microarrays: a tool to detect cis-acting elements near promoter regions in rice”.

Amino acid sequences for entries named in this document (tags omitted).
UniProt Q0JBA9, entry or part of it: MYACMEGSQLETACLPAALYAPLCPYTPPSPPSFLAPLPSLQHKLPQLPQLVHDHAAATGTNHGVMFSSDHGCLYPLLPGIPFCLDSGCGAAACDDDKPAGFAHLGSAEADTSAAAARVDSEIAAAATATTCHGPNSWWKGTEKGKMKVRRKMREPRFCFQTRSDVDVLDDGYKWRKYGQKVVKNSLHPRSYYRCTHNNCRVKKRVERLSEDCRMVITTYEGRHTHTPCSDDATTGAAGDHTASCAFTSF

The other results are listed elsewhere or left out.

The assay has as its target OsWRKY34 (Oryza sativa, UniProt Q0JBA9 1-250). Briefly: protein-binding microarray (RPBM); PBS, 2% BSA, 51.3 ng/ul salmon testes DNA, 50 uM zinc acetate, 200 nM TF, 25 C, 1 h; high values mean tight binding. Particulars: protein: recombinant; tags: N-terminal polyhistidine and DsRed monomer fusion (pET32a); label: CyDye5-dUTP incorporated in the synthesized complementary strand; 3' TTTTT single-stranded linker to array surface; dsDNA, one strand shown. A digest of the protocol: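 The binding signal for each feature is its fluorescence intensity in arbitrary units. An Axon 4000B scanner was used to read a custom Agilent array that had been made double-stranded with Cy5-dUTP primer extension, blocked with 2% BSA, incubated at 25 °C for 1 h with 200 nM protein in PBS, 2% BSA, salmon testes DNA and 50 µM zinc acetate, and washed. The protein was an N-terminal polyhistidine–DsRed transcription factor fusion from E. coli BL21-CodonPlus, purified on Ni–NTA.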
In the case of “CTGAACTCTCTCTCGCTCTCCGGCTCTCTGTATTCCTTCACGGAGTCACCTAGTGCAG”, the binding signal was 19800 fluorescence intensity (a.u.).
As to “GCTTCCGGCTTCTAGTTCATTTTCTAAATTCTACAACTAACGGAGTCACCTAGTGCAG”, the binding signal was 9110 fluorescence intensity (a.u.).
The figure for “ACCACTCACATGTACTGTCAGCATATCCTACGTTCTCTCCCGGAGTCACCTAGTGCAG” is 14500 fluorescence intensity (a.u.).
To “GACTCGTAGTCTTGCCCATGTTAAAATTTCTCGTGTCAATCGGAGTCACCTAGTGCAG” belongs 8610 fluorescence intensity (a.u.); to “CGTGGTGGTGGTAGGGGAGGGGATGGATGATATGGCGTGACGGAGTCACCTAGTGCAG”, 22400 fluorescence intensity (a.u.).
The figure for “CTGCTCCGTCCTCCATGATCAACTTTTTCCTGCGAGCTCGCGGAGTCACCTAGTGCAG” is 10400 fluorescence intensity (a.u.); for “GCACTGTCAAATAATGCTCATCCTCGCCGAGCAATCATCACGGAGTCACCTAGTGCAG” it is 8192 fluorescence intensity (a.u.); for “ATTTTCTTGGTTTGGATTTCGCGGTGGTCGTGTGGTTTGCCGGAGTCACCTAGTGCAG” it is 11000 fluorescence intensity (a.u.).
For “AGTTTAGTGGTTATTTGCCGTTTTCTCTTTTTTTCAATTTCGGAGTCACCTAGTGCAG”, the binding signal was 12700 fluorescence intensity (a.u.).
As for “TTTTCCCGCGCTTTTTTTTCCTTCCCCACCCAGCTGCGCGCGGAGTCACCTAGTGCAG”, the binding signal is 9120 fluorescence intensity (a.u.).
The figure for “TCGCCATCTCTCTCAGCTCTCACAGCTCACTGCATCAATGCGGAGTCACCTAGTGCAG” is 10600 fluorescence intensity (a.u.); for “TTGTCGTTCGTCGACCTTCCTTCATTTTTGGTCAACACATCGGAGTCACCTAGTGCAG” it is 8130 fluorescence intensity (a.u.).
The figure for “GCGACCGATCTATCCCAATCACTTGGTTTAAGTATATATCCGGAGTCACCTAGTGCAG” is 10500 fluorescence intensity (a.u.); for “TCCTGGCCACAGCAACCCACACATTCCTTGTACTTCTTCCCGGAGTCACCTAGTGCAG” it is 8610 fluorescence intensity (a.u.); for “GTCCTGCTTGTTGATGTCATCCTTCCAGAATTCGATGTCGCGGAGTCACCTAGTGCAG” it is 10100 fluorescence intensity (a.u.).
To “TAGCTCACTCAATTACGGCTACTAGCTACTGTAGCTATACCGGAGTCACCTAGTGCAG” belongs 8640 fluorescence intensity (a.u.); to “GGTATCCCTTCTCTCCATCTCTTTGCTCACACCTATTATCCGGAGTCACCTAGTGCAG”, 8880 fluorescence intensity (a.u.).
On to “AATATGGTATGAGCATTATCCGTCCGTATCCGCTCCTTTTCGGAGTCACCTAGTGCAG”, for which the binding signal is 10900 fluorescence intensity (a.u.).
The figure for “ACCACAGCCTCTCACCCTCACTATAAATAAGCCCATTAATCGGAGTCACCTAGTGCAG” is 9180 fluorescence intensity (a.u.).
The figure for “TTTATTTTCCATTTTCTTCTCATTCTTCTTTTTTTCCTTTCGGAGTCACCTAGTGCAG” is 8620 fluorescence intensity (a.u.).
To “GTGAGCGTGTGTGAGTATGGTGTTACATGTTTAATAGTGTCGGAGTCACCTAGTGCAG” belongs 8180 fluorescence intensity (a.u.).
In the case of “AGTTGTAGTTTAATTTATTTTTTTCGTTGCGAGATGTAAACGGAGTCACCTAGTGCAG”, the binding signal was 8730 fluorescence intensity (a.u.).
To “TCAAACACCCAAACCCTTAACCTCAGTATCCTCTTCTTCTCGGAGTCACCTAGTGCAG” belongs 8290 fluorescence intensity (a.u.); to “CCTCGTTCGTTCGTCGCTGACGGCACATTATTATATCCTACGGAGTCACCTAGTGCAG”, 9320 fluorescence intensity (a.u.).
Take “AAGAACGGTTACTTTTTTGCAATATTGTGGTTGCATTTATCGGAGTCACCTAGTGCAG”: the binding signal was 9930 fluorescence intensity (a.u.).
The figure for “GGGGTGGGTTCTGAGGATTCGAGGCGGCAGGTCGCCTCCGCGGAGTCACCTAGTGCAG” is 13200 fluorescence intensity (a.u.).
The figure for “GGATGGGCAGTGCTCGTCTTGACTTCTATGTATGCATTCTCGGAGTCACCTAGTGCAG” is 9170 fluorescence intensity (a.u.); for “TCAGTTTTTTTTGCTAGTGAACAGGAGGTTGTTATTTTCACGGAGTCACCTAGTGCAG” it is 9030 fluorescence intensity (a.u.); for “AACATAACTGTCTTCTTCCATTTGTATGTCATGTTTCTGTCGGAGTCACCTAGTGCAG” it is 10700 fluorescence intensity (a.u.).
The figure for “AAATAAGACAAATGGTCAAACATGTGCTAAAAAGTCAACGCGGAGTCACCTAGTGCAG” is 14200 fluorescence intensity (a.u.); for “TTCCACTCTAGTAATTCATACGCACAGTTCATGCTTTGTTCGGAGTCACCTAGTGCAG” it is 9400 fluorescence intensity (a.u.).
For “CCCTTTCCTCGTCGTCGTCCACGCATGCCGTCCACCGGCGCGGAGTCACCTAGTGCAG”, the binding signal is 9820 fluorescence intensity (a.u.).
The figure for “TTCGCCTTTGTTAGCCTTTGTTTCGCGCCTGTCGCCATTGCGGAGTCACCTAGTGCAG” is 8740 fluorescence intensity (a.u.); for “GGGTGGGATTGGGATTGGGAAATGAATGAAGGGTTAGGATCGGAGTCACCTAGTGCAG” it is 16400 fluorescence intensity (a.u.); for “CGCTCCACCCGCCGCCTCCCACTCGCGCCGCTCGCCACATCGGAGTCACCTAGTGCAG” it is 9660 fluorescence intensity (a.u.).
The figure for “CTCCGAGCCGAGTCGAGTTGACTGGTCGGTCTATTCTCCTCGGAGTCACCTAGTGCAG” is 9430 fluorescence intensity (a.u.); for “CTGCTGCATTATCTTTATATATTTTTTGATGAATTTTATCCGGAGTCACCTAGTGCAG” it is 8890 fluorescence intensity (a.u.); for “AGAGATGATGTGACTGAAAAGTTGTGTGTGTATGATAGGTCGGAGTCACCTAGTGCAG” it is 8040 fluorescence intensity (a.u.).
Regarding “ATTTTAATATTTGACGCCGTTGACTTTTTGTATGTTTGACCGGAGTCACCTAGTGCAG”, the binding signal is 42500 fluorescence intensity (a.u.).
The figure for “GTGGATGTTGGAGATGTTCGGTAAAGGAGTCAAAGGAAATCGGAGTCACCTAGTGCAG” is 8630 fluorescence intensity (a.u.).
To “GTGTGTGTGTTTGTGTGACCTGGCCTTTGTATGAATGGAACGGAGTCACCTAGTGCAG” belongs 10600 fluorescence intensity (a.u.).
To “GTCGCCGTATATGTCATGTCCTTCGCCGGCGTCTCTTTCACGGAGTCACCTAGTGCAG” belongs 12000 fluorescence intensity (a.u.); to “CGGAGGCATGGGGAGGCTGCTGCGGCGCCAATTGTGGCCACGGAGTCACCTAGTGCAG”, 8860 fluorescence intensity (a.u.).
In the case of “CCGCCGCCGCCGCCGATCCCCATCCATCCCGCGAGCGAGCCGGAGTCACCTAGTGCAG”, the binding signal was 8160 fluorescence intensity (a.u.).
On to “TAAGACACTTTATATAATACTCTCTCCATTTACTTTTGATCGGAGTCACCTAGTGCAG”, for which the binding signal was 8500 fluorescence intensity (a.u.).
To “AATACGTCCCATCAGGTTTTAGGTTGCTATATTATGAAGTCGGAGTCACCTAGTGCAG” belongs 8030 fluorescence intensity (a.u.); to “TATATTTATAGTAGTTCTGTACGTAGTTTTTCTGTGTTTTCGGAGTCACCTAGTGCAG”, 9860 fluorescence intensity (a.u.).
To “AAGGCTAAGGGTGAATGCGTTTGGTAGAGGGGAGATTTTACGGAGTCACCTAGTGCAG” belongs 8730 fluorescence intensity (a.u.).
Take “CCACTAATATGTCACTCAACATGTCTTAAGCAAGTTTTGACGGAGTCACCTAGTGCAG”: the binding signal was 8470 fluorescence intensity (a.u.).
The figure for “GCAGTTTTGCACTATTCATGTTCAACGTTTGACCGTCCGTCGGAGTCACCTAGTGCAG” is 10400 fluorescence intensity (a.u.); for “TCATGGCGGTACGTTTAATTTCTCCAATCACTTTTGTTTCCGGAGTCACCTAGTGCAG” it is 9880 fluorescence intensity (a.u.).
In the case of “CCCAGGTTCTCATCTCTCACTTTTGCTTCTTTGATTATAGCGGAGTCACCTAGTGCAG”, the binding signal is 8250 fluorescence intensity (a.u.).
Regarding “TACTGTCAATTTGCGTCTCGCTATAAATATGTTTCTGCTTCGGAGTCACCTAGTGCAG”, the binding signal was 9010 fluorescence intensity (a.u.).
The figure for “CTATGAAGTTAAAAATACGCTCATCAGAAAGGATATATTTCGGAGTCACCTAGTGCAG” is 57200 fluorescence intensity (a.u.).
